Data reported in article PMC12229345.
These are yes or no findings as the source states them, for the method shown. Binding seen in cells or lysates may run through a third protein. A yes stands for co-enrichment or nearness to the bait. Other partners may have been found.

Protein sequences, listed by entry. Tags and fused reporters are not part of them. Residues count along the entry.
UniProt O75973, residues 17-258: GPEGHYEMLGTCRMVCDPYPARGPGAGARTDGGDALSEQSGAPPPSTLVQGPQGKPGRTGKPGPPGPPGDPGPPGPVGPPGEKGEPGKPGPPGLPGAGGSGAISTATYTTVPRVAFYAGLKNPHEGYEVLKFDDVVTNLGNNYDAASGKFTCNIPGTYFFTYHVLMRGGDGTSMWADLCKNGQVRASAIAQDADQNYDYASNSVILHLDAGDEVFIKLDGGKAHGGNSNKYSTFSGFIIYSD
UniProt P27824, residues 21-592: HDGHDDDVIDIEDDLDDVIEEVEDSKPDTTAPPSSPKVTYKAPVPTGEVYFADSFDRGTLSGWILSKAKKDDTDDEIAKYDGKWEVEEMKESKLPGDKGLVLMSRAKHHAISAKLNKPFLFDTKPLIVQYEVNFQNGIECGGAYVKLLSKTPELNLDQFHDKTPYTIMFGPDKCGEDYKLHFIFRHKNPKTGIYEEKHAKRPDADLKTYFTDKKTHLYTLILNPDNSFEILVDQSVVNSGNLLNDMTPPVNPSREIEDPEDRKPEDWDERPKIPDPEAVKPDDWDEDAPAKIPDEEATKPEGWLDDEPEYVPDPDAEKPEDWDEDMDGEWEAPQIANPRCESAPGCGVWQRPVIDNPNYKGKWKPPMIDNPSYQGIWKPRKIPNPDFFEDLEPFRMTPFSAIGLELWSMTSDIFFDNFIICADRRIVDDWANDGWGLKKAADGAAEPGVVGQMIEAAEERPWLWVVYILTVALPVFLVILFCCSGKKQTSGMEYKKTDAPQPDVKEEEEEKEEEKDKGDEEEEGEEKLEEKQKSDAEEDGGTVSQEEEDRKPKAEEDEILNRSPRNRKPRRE
UniProt P14625, residues 22-803: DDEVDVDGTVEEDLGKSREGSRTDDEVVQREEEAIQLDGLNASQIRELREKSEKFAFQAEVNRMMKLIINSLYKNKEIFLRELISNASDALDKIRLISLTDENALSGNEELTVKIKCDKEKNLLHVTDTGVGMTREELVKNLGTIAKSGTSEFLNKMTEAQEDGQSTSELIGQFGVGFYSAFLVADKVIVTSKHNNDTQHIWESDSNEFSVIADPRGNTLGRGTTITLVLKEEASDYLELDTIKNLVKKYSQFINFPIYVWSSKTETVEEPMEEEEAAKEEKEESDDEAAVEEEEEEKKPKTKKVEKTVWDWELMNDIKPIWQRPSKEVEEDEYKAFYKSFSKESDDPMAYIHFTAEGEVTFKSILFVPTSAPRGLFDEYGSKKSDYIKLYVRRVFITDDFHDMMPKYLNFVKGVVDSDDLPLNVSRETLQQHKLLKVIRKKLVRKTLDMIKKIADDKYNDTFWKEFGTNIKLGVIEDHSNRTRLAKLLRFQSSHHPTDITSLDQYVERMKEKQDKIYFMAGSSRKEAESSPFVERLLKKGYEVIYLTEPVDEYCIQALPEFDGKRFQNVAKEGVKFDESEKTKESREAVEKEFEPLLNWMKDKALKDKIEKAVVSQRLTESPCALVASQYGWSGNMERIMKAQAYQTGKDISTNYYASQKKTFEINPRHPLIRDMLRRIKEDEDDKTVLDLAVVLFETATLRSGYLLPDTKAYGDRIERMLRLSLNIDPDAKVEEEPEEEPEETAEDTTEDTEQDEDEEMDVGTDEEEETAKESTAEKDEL
UniProt P07237, residues 18-508: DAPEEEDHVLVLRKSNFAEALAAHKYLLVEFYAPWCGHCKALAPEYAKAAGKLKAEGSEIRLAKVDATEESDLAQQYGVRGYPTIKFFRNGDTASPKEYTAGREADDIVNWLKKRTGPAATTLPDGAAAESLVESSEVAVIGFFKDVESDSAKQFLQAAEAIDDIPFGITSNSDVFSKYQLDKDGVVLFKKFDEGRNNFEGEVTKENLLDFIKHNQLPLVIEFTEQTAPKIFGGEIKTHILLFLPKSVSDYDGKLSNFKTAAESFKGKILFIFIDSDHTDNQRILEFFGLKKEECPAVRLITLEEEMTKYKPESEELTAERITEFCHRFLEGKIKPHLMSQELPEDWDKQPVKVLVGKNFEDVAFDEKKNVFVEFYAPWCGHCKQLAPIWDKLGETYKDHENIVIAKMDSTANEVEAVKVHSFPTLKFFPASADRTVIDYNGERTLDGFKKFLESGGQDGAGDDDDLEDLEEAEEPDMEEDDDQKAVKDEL
UniProt P30101, residues 25-505: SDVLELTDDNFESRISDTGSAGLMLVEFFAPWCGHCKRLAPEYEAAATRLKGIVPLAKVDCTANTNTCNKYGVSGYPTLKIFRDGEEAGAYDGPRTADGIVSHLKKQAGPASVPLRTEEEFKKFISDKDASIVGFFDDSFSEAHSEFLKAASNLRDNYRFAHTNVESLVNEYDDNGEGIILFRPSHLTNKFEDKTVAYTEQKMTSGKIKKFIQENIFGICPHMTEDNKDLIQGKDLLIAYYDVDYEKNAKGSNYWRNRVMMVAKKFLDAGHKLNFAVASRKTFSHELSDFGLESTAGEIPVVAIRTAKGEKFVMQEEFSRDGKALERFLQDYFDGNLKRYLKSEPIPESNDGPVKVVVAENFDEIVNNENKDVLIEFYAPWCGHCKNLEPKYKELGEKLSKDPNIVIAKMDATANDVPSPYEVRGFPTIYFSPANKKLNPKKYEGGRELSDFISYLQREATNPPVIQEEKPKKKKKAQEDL

Target: C1QL1-FLAG (complement component 1, q subcomponent-like 1), stably expressed in MDA-MB-231 and MDA-MB-468 cells (UniProt O75973)
Assay: affinity purification with mass spectrometry; lysates of MDA-MB-231 and MDA-MB-468 cells stably expressing C1QL1; co-IP with anti-Flag or anti-IgG, then LC-MS/MS

binding, binds:
Calnexin (CANX), endogenous in MDA-MB-231 and MDA-MB-468 cells (from UniProt P27824 21-592)
HSP90B1 (GRP94), endogenous in MDA-MB-231 and MDA-MB-468 cells (from UniProt P14625 22-803)
P4HB, endogenous in MDA-MB-231 and MDA-MB-468 cells (from UniProt P07237 18-508)
PDIA3 (ERP57), endogenous in MDA-MB-231 and MDA-MB-468 cells (from UniProt P30101 25-505)
heat shock protein 90α (HSP90α), endogenous in MDA-MB-231 and MDA-MB-468 cells (from UniProt P07900 1-732)
valosin-containing protein (VCP), endogenous in MDA-MB-231 and MDA-MB-468 cells (from UniProt P55072 1-806)
